# Test results reported in PubChem BioAssay AID1671190 (National Center for Advancing Translational Sciences (NCATS), 2021).
# Sequences of proteins named here, by UniProt entry; tags and fusion partners are left off. A change or cut given only in a name is not applied to a line headed by its entry.
# UniProt P18054: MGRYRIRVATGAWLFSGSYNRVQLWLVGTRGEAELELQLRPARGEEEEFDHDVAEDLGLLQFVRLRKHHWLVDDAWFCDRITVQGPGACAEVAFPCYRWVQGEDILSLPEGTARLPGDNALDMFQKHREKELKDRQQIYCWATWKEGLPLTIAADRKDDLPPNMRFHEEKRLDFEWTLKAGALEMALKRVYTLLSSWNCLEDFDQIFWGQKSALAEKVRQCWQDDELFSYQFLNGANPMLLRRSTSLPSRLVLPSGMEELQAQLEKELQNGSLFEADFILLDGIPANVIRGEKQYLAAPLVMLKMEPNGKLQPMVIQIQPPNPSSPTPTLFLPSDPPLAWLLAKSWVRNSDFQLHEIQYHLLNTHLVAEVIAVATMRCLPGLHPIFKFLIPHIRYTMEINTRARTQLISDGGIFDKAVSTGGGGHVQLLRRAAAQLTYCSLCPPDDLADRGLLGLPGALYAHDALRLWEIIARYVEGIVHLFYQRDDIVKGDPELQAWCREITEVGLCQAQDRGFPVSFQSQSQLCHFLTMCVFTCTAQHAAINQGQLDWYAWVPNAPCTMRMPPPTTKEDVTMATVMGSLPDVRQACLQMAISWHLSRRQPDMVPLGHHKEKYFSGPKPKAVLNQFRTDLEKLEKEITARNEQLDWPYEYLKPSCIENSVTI
# Values joined by “and” are separate entries in the source; they are usually repeats but may differ in a detail not shown here. Equal entries are not always repeated. About 6,100 (1.1%) of roughly 580,000 compounds were called active. Inconclusive means that the source gave no clear call. Such entries were picked first, then a sample of the others. Calls come from the whole dose curve; as a rule, active = well fitted inhibition curve with a large enough effect; inconclusive = small, poorly fitted or top-dose-only effect, or another doubt; inactive = no such curve, though single readings can be large or run the other way. A potency beside an inconclusive call is a rough fit, not a confirmed value.
# Target: Polyunsaturated fatty acid lipoxygenase ALOX12 (Homo sapiens) (UniProt P18054)
# Experiment: Primary qHTS assay for inhibitors of human arachidonate 12S-lipoxygenase (ALOX12): Round 2
# Details: purified 12hLO, xylenol orange hydroperoxide absorbance; activity change, negative = inhibition: at 108 µM (top of the series) unless noted
# Summary of the method: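 Purified human 12hLO (150 nM final) in 25 mM Hepes, 0.01% Triton X-100, pH 7.0 was preincubated 15 min at room temperature with compound. Then 40 uM arachidonic acid was added, 30 min. Hydroperoxide was read by Fe-XO absorbance ratio 573/405 nm.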
# % is set by controls: 0 for no effect and ±100 for the full control effect; potency is the fitted concentration of half-maximal effect.
Compound,Potency,"activity change, negative = inhibition"
CCC1CCCCN1C(=O)Cn1c(=O)n(Cc2ccc3c(c2)OCO3)c(=O)c2sccc21 (stereo unspecified),"inconclusive: 35.5 µM [inhibitor, single point]",–
S=C(c1ccc(-c2cccc(Cl)c2)o1)N1CCOCC1,"inconclusive: 17.8 µM [inhibitor, partial curve, poor fit]",–
CCC(C)[C@H](NC(=O)NCc1cccs1)C(=O)O (stereo partly specified),"inconclusive: 5.62 µM [inhibitor, partial curve, poor fit]",–
O=C(Nc1nc(-c2ccccn2)cs1)c1cc2ccccc2o1,inactive,–
CCC1CCCCN1CCCNC(=O)c1ccc2c(c1)N(Cc1cccc(Cl)c1)C(=O)c1ccccc1S2(=O)=O (stereo unspecified),"inconclusive: 89.1 µM [inhibitor, partial curve, poor fit]",–
CCCCCC(C)NC(=S)NC(=O)c1cc(S(=O)(=O)N2CCOCC2)ccc1C (stereo unspecified),"inconclusive: 31.6 µM [inhibitor, partial curve, poor fit]",–
CC(=O)c1ccc(NC(=O)c2sc(-n3nc(C)c(Cc4ccc5c(c4)OCO5)c3C)nc2C)cc1,"inconclusive: 79.4 µM [inhibitor, partial curve, poor fit]",–
O=C(O)c1ccccc1C(=O)Nc1ccc(-c2csc(-c3ccccc3)n2)cc1,"inconclusive: 50.1 µM [inhibitor, partial curve, poor fit]",–
CC(C)c1ccc(Nc2ncccc2[N+](=O)[O-])cc1,"inconclusive: 31.6 µM [inhibitor, partial curve, poor fit]",–
COc1cccc(CNCc2c(C(=O)O)n(Cc3ccc(C)cc3)c3cc(C)ccc23)c1OC,–,inconclusive: -30.4% [inhibitor]
COc1ccc(-c2csc3nc(-c4ccccc4F)oc(=O)c23)cc1,"inconclusive: 35.5 µM [inhibitor, single point]",–
Cc1ccccc1N1C(=O)c2cccc([N+](=O)[O-])c2C1=O,"inconclusive: 4.47 µM [inhibitor, full curve, poor fit]",–
COc1ccc(Cl)cc1NC(=O)COc1ccccc1Br,inactive,–
COc1ccc(O)c(/C=N/NC(=S)Nc2cccc(S(=O)(=O)N(C)C)c2)c1,"inconclusive: 12.6 µM [inhibitor, partial curve, poor fit]",–
COc1cc(C(=O)Nc2cc(Cl)ccc2-n2cncn2)ccc1OC(F)F,"inconclusive: 126 µM [inhibitor, single point]",–
O=C(/C=C/c1ccc(SC(F)(F)F)cc1)c1ccc(O)c(CCCl)c1,"inconclusive: 35.5 µM [inhibitor, partial curve, poor fit]",–
COc1ccc(CCNC(=O)c2cnc3sc(N4CCCCCC4)nn3c2=O)cc1,inactive,–
Cc1cn2nc(C(=O)Nc3ccccc3F)cc2c(N(C)Cc2ccccc2)n1,inactive,–
CC(C)CCN1CCC(CN2CCNC(=O)C2=O)CC1,"inconclusive: 1 µM [inhibitor, full curve, poor fit]",–
Cc1ccc([N+](=O)[O-])cc1-c1[nH]c(-c2ccc(O)c(O)c2)nc1-c1ccccc1,"inconclusive: 5.01 µM [inhibitor, full curve]",–
Cc1nc2cc(F)ccc2cc1C(=O)NCc1cccnc1-n1cncn1,inactive,–

Compound,Potency,"activity change, negative = inhibition"
O=C(NCc1ccccc1Cl)c1cnc2n(c1=O)CCS2,inactive,–
Cc1n[nH]c(=O)c2c(NC(=O)CSc3nnc(C4CC4)n3C3CC3)oc(C)c12,"inconclusive: 7.08 µM [inhibitor, full curve, poor fit]",–
CC1CCc2nc(NC(=O)Cc3n[nH]c(=O)c4ccccc34)sc2C1 (stereo unspecified),inactive,–
COc1cc2c3c(c1)C1(C(=O)N3C(C)(C)C=C2C)C(C#N)=C(N)Oc2cc(O)ccc21 (stereo unspecified),inactive,–
CC(C)(C)c1ccc(-c2nnc(SCCOc3ccccc3Cl)n2-c2ccccc2)cc1,inactive,–
Cn1c(=O)oc2cc(NC(=O)Nc3ccc(F)c(Cl)c3)ccc21,"inconclusive: 100 µM [inhibitor, single point]",–
O=[N+]([O-])c1cc(NS(=O)(=O)c2cc(Cl)sc2Cl)ccc1F,"inconclusive: 50.1 µM [inhibitor, partial curve, poor fit]",–
CN(C)CCNC(=O)C(=O)Nc1ccc2c(c1)N(S(=O)(=O)c1cccs1)CCC2,"inconclusive: 89.1 µM [inhibitor, single point]",–
Fc1cccc(NCCc2c[nH]c3ccccc23)n1,"inconclusive: 79.4 µM [inhibitor, partial curve, poor fit]",–
COc1cc(CN2CCN(c3cccc(C)c3C)CC2)cc(OC)c1O,"inconclusive: 1.78 µM [inhibitor, full curve, poor fit]",–
O=C(c1ccc(Cl)cc1)N1CCC(n2cc(-c3ccc(OC(F)F)cc3)[nH]c2=O)CC1,"inconclusive: 10 µM [inhibitor, full curve, poor fit]",–
CSc1cccc(N2CC(C(=O)Nc3cc(Cl)ccc3-n3cncn3)CC2=O)c1 (stereo unspecified),"inconclusive: 39.8 µM [inhibitor, partial curve, poor fit]",–
O=C(C(NS(=O)(=O)c1cccs1)c1ccccc1)N1CCN(c2ccccc2F)CC1 (stereo unspecified),inactive,–
C/C(=N/Nc1nc(-c2ccccc2)c(CC(=O)O)s1)c1ccccc1,"inconclusive: 3.16 µM [inhibitor, full curve, poor fit]",–
O=S(=O)(NCC1CCCO1)c1ccccc1 (stereo unspecified),"inconclusive: 31.6 µM [inhibitor, single point]",–
CCOCCCNCc1cccc(OC)c1,"inconclusive: 89.1 nM [inhibitor, full curve, poor fit] and inconclusive: 25.1 µM [inhibitor, partial curve, poor fit]",–
CC1=C(C(=O)OCC(Cl)(Cl)Cl)C(c2ccc3c(c2)OCO3)NC(=O)N1 (stereo unspecified),"inconclusive: 89.1 µM [inhibitor, partial curve, poor fit]",–
CCCCc1cc(C[C@H]2CNCC[C@H]2CC(=O)N(C)Cc2ccccc2)no1,inactive,–
CN1CCN(c2ccc3ncc(Nc4ccc(OC(F)(F)F)cc4)n3n2)CC1,inactive,–
CCc1ccccc1-n1nnnc1SCC(=O)Nc1ccc2nccnc2c1,"inconclusive: 70.8 µM [inhibitor, partial curve, poor fit]",–

# A section from the list above, for reference:
Compound,Potency,"activity change, negative = inhibition"
CC1CCc2nc(NC(=O)Cc3n[nH]c(=O)c4ccccc34)sc2C1 (stereo unspecified),inactive,–
COc1cc2c3c(c1)C1(C(=O)N3C(C)(C)C=C2C)C(C#N)=C(N)Oc2cc(O)ccc21 (stereo unspecified),inactive,–
CC(C)(C)c1ccc(-c2nnc(SCCOc3ccccc3Cl)n2-c2ccccc2)cc1,inactive,–
Cn1c(=O)oc2cc(NC(=O)Nc3ccc(F)c(Cl)c3)ccc21,"inconclusive: 100 µM [inhibitor, single point]",–
O=[N+]([O-])c1cc(NS(=O)(=O)c2cc(Cl)sc2Cl)ccc1F,"inconclusive: 50.1 µM [inhibitor, partial curve, poor fit]",–
CN(C)CCNC(=O)C(=O)Nc1ccc2c(c1)N(S(=O)(=O)c1cccs1)CCC2,"inconclusive: 89.1 µM [inhibitor, single point]",–
Fc1cccc(NCCc2c[nH]c3ccccc23)n1,"inconclusive: 79.4 µM [inhibitor, partial curve, poor fit]",–
COc1cc(CN2CCN(c3cccc(C)c3C)CC2)cc(OC)c1O,"inconclusive: 1.78 µM [inhibitor, full curve, poor fit]",–
O=C(c1ccc(Cl)cc1)N1CCC(n2cc(-c3ccc(OC(F)F)cc3)[nH]c2=O)CC1,"inconclusive: 10 µM [inhibitor, full curve, poor fit]",–
